Experimental findings from article PMC8450094 are described below.

This data set concerns the target T1, SNM1B R300A (Homo sapiens) (UniProt Q9H816).
T1 sequence (looked up): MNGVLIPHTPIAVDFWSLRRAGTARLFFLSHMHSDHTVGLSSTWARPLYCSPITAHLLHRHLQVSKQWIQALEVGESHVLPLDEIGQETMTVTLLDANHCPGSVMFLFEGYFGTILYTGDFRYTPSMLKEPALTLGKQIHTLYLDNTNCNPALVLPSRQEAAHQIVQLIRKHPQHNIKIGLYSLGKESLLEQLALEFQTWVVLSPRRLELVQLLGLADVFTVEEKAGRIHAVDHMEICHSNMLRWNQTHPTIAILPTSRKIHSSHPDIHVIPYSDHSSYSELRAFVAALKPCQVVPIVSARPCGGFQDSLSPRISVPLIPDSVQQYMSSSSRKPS
The data set can be described thus: fluorescence polarisation. The settings on record: increased KDapp; 5' phosphate on strand 1; 5' OH on strand 2; FP: 20 mM HEPES pH 7.5, 50 mM KCl, 0.5 mM TCEP, room temperature, 5 min, DNA 25 nM (Methods) or 50 nM (legends; 10 nM in Suppl. Fig. 14C); recombinant protein; residues 1-335; protein details: C-terminal His10-FLAG, TEV cleavage stated; label: 3' FITC on strand 1.

For at least one entry, the source does not settle the construct or the ends of the probe. A weaker result is weaker than the reference pair of the same experiment. Where a protein sequence is shown, tags need not be part of it.

Consider “ATAAATATTTTTTATTAATAATAGATCACCTTTCTTTCTCTTCTCCCCTT / ATTATTAATAAAAAATATTTAT [3' overhang DNA (oligo 20 / oligo 4)]”, for which the binding result is “binds more weakly”.
